Source: PubChem BioAssay AID686938 (Drosophila RNAi Screening Center, 2013)
The screen tested about 23,000 reagents; shown is an unselected part of those that have a named target and a result. Of all reagents, 75 (0.33%) are marked active. 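Raw plate signals without normalisation; calls rest on plate z-scores that were not deposited; ratio present for only 364 wells.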 Not stated in the record: the dose of the treatment.

- Assay: 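Fly genes required for calcium entry once internal stores are emptied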 (primary screen)
- Cells: Drosophila S2R+ cells
- Knock-down reagent: long dsRNA against Drosophila genes, about 0.25 µg dsRNA per well, roughly 10,000 cells
- Time to read-out: 5 days of knock-down before the calcium assay
- Treatment: thapsigargin (SERCA pump blocker) to empty calcium stores; entry signal taken 4 min after adding it
- Detection: 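Per-well fluo-4 fluorescence in two replicates, unnormalised, measured in resting cells and 4 min after store depletion by the SERCA blocker thapsigargin; ratio of the two present in few wells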
- Scale: calcium entry signal: higher = stronger calcium signal after store depletion; resting calcium signal: higher = higher resting calcium signal
- Units: calcium entry signal in fluorescence units; resting calcium signal in fluorescence units
- Rule for the call: 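Hit if the duplicate-averaged plate z-score for entry over resting signal is under −3; wells with weak total dye signal (Fmax z < −2) or more than 5 off-targets removed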
- Meaning of the calls: active = strongly reduced calcium entry; inactive = no strong reduction

For CG12301 [DRSC09875] the deposit lists calcium entry signal, replicate 1 = 3.22e7; calcium entry signal, replicate 2 = 3.18e7; resting calcium signal, replicate 1 = 1.65e7; resting calcium signal, replicate 2 = 2.44e7; inactive. CG43084 [DRSC09998] gave calcium entry signal, replicate 1 = 4.21e7; calcium entry signal, replicate 2 = 4.33e7; resting calcium signal, replicate 1 = 1.89e7; resting calcium signal, replicate 2 = 1.81e7; inactive. Silencing of vimar [DRSC05026] came out at: calcium entry signal, replicate 1 = 4.07e7; resting calcium signal, replicate 1 = 2.08e7; inactive. CG18586 [DRSC10325] showed calcium entry signal, replicate 1 = 3.59e7; calcium entry signal, replicate 2 = 3.77e7; resting calcium signal, replicate 1 = 1.67e7; resting calcium signal, replicate 2 = 1.62e7; inactive. For Scr [DRSC12604], the entry reads calcium entry signal, replicate 1 = 4.12e7; calcium entry signal, replicate 2 = 2.63e7; resting calcium signal, replicate 1 = 2.16e7; resting calcium signal, replicate 2 = 1.52e7; inactive. Scr [DRSC23141] gave calcium entry signal, replicate 1 = 3.25e7; calcium entry signal, replicate 2 = 3.20e7; resting calcium signal, replicate 1 = 1.80e7; resting calcium signal, replicate 2 = 1.66e7; inactive.

Depletion of Tlk [DRSC17281] came out at: calcium entry signal, replicate 1 = 3.36e7; calcium entry signal, replicate 2 = 3.33e7; resting calcium signal, replicate 1 = 1.74e7; resting calcium signal, replicate 2 = 1.35e7; inactive. With knock-down of Tlk [DRSC17731], the screen gave calcium entry signal, replicate 1 = 2.15e7; calcium entry signal, replicate 2 = 2.42e7; resting calcium signal, replicate 1 = 1.03e7; resting calcium signal, replicate 2 = 1.08e7; inactive. Tlk [DRSC17835] gave calcium entry signal, replicate 1 = 1.37e7; calcium entry signal, replicate 2 = 2.39e7; resting calcium signal, replicate 1 = 8.86e6; resting calcium signal, replicate 2 = 1.18e7; inactive. Tlk [DRSC22924] scored calcium entry signal, replicate 1 = 3.31e7; calcium entry signal, replicate 2 = 3.75e7; resting calcium signal, replicate 1 = 1.66e7; resting calcium signal, replicate 2 = 1.78e7; inactive. Depletion of Tlk [DRSC22926] came out at: calcium entry signal, replicate 1 = 2.39e7; calcium entry signal, replicate 2 = 2.11e7; resting calcium signal, replicate 1 = 1.26e7; resting calcium signal, replicate 2 = 1.05e7; inactive. Depletion of Tlk [DRSC22938] came out at: calcium entry signal, replicate 1 = 4.13e7; calcium entry signal, replicate 2 = 3.69e7; resting calcium signal, replicate 1 = 2.05e7; resting calcium signal, replicate 2 = 1.55e7; inactive.

Depletion of Tlk [DRSC23163] gave: calcium entry signal, replicate 1 = 3.59e7; calcium entry signal, replicate 2 = 2.00e7; resting calcium signal, replicate 1 = 2.07e7; resting calcium signal, replicate 2 = 1.01e7; inactive. Silencing of CG12499 [DRSC14521] came out at: calcium entry signal, replicate 1 = 2.09e7; calcium entry signal, replicate 2 = 2.21e7; resting calcium signal, replicate 1 = 6.95e7; resting calcium signal, replicate 2 = 1.25e7; inactive.

Entries above whose target name starts with C or c (4):
CG12301 [DRSC09875]: calcium entry signal, replicate 1 = 3.22e7; calcium entry signal, replicate 2 = 3.18e7; resting calcium signal, replicate 1 = 1.65e7; resting calcium signal, replicate 2 = 2.44e7; activity call = inactive
CG43084 [DRSC09998]: calcium entry signal, replicate 1 = 4.21e7; calcium entry signal, replicate 2 = 4.33e7; resting calcium signal, replicate 1 = 1.89e7; resting calcium signal, replicate 2 = 1.81e7; activity call = inactive
CG18586 [DRSC10325]: calcium entry signal, replicate 1 = 3.59e7; calcium entry signal, replicate 2 = 3.77e7; resting calcium signal, replicate 1 = 1.67e7; resting calcium signal, replicate 2 = 1.62e7; activity call = inactive
CG12499 [DRSC14521]: calcium entry signal, replicate 1 = 2.09e7; calcium entry signal, replicate 2 = 2.21e7; resting calcium signal, replicate 1 = 6.95e7; resting calcium signal, replicate 2 = 1.25e7; activity call = inactive

Further results follow.
With knock-down of Coq3 [DRSC03168] the results were calcium entry signal, replicate 1 = 3.74e7; resting calcium signal, replicate 1 = 1.95e7; inactive. After knock-down of CG42583 [DRSC22937], the screen gave calcium entry signal, replicate 1 = 4.60e7; calcium entry signal, replicate 2 = 4.24e7; resting calcium signal, replicate 1 = 2.43e7; resting calcium signal, replicate 2 = 1.85e7; inactive. CG33307 [DRSC01349] gave calcium entry signal, replicate 1 = 4.16e7; calcium entry signal, replicate 2 = 4.51e7; resting calcium signal, replicate 1 = 1.98e7; resting calcium signal, replicate 2 = 1.87e7; inactive. After knock-down of Rim2 [DRSC00073], the screen gave calcium entry signal, replicate 1 = 4.48e7; calcium entry signal, replicate 2 = 4.04e7; resting calcium signal, replicate 1 = 2.17e7; resting calcium signal, replicate 2 = 1.92e7; inactive. Against Rim2 [DRSC00520], the values are calcium entry signal, replicate 1 = 5.05e7; resting calcium signal, replicate 1 = 2.58e7; inactive. Depletion of Rim2 [DRSC22699] gave: calcium entry signal, replicate 1 = 3.29e7; calcium entry signal, replicate 2 = 3.13e7; resting calcium signal, replicate 1 = 1.72e7; resting calcium signal, replicate 2 = 1.41e7; inactive.

Knock-down of CG7882 [DRSC04899] came out at: calcium entry signal, replicate 1 = 4.01e7; calcium entry signal, replicate 2 = 5.22e7; resting calcium signal, replicate 1 = 1.95e7; resting calcium signal, replicate 2 = 2.48e7; inactive.
